Data reported in patent US20190201542A1, “ANTI-DLL3 DRUG CONJUGATES FOR TREATING TUMORS AT RISK OF NEUROENDOCRINE TRANSITION” (ABBVIE STEMCENTRX LLC, priority 2016, published 2019).
No constants are given. Whether binding was seen depends on the method and setting. Some binding calls cover weakened binding; strength is not graded here.

Protein sequences, listed by entry. Tags and fused reporters are not part of them. Lines headed by an entry give the natural chain unless they say otherwise; changes in a name come on top.
UniProt Q9NYJ7: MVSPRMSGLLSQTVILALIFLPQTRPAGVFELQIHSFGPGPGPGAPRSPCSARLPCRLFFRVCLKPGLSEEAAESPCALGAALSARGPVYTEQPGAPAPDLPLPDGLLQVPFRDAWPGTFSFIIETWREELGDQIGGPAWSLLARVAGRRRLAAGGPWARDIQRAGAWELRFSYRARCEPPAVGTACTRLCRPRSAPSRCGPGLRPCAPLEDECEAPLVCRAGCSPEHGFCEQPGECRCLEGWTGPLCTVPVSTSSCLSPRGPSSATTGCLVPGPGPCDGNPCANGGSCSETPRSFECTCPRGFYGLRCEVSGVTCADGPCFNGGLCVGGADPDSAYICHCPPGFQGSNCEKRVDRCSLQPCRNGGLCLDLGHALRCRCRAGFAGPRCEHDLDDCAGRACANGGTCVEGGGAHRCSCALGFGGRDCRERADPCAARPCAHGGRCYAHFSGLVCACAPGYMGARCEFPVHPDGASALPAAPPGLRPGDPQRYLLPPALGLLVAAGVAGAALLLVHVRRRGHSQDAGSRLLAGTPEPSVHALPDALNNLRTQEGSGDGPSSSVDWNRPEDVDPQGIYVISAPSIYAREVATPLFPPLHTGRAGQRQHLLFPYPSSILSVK

Target: human DLL3 (human) (UniProt Q9NYJ7)
Assay: screen on immobilized hDLL3 or h293-hDLL3 cells

binding: binds
B1: SC16.31 (antibody, V domains shown)
VH: EVQLQQSGPELVKPGASVKISCKASGYSFSRFYMHWVKQSPENSLEWIGEINPSTGGTSYNQKFKGKATLTVDKSSSTAYMQLKSLTSEESAVYYCTRGYGSNWYFDVWGAGTTVTVST
VL: DIVLTQSPLSLPVNIGDQASISCKSTKSLLNSDGFTYLDWYLQRPGQSPQFLIYLVSNRFSGVPDRFSGSGSGTDFTLKISRVEAEDLGVYYCFQSNYLPLTFGAGTKLELR
